Consider 56 molecules from PubChem BioAssay AID1487 (National Center for Advancing Translational Sciences (NCATS), 2009).

The nature of this test: qHTS Assay for Modulators of Lamin A Splicing. Conditions: HeLa LMNA splicing GFP/RFP minigene ratio, 48 h. In outline: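 S3 HeLa cells stably expressing lamin A-EGFP splicing minigene plus DsRed2, 600 cells/well, 48 h compound exposure at 37C. Laser-scanning cytometry; analysed as GFP (500-530 nm)/RFP (575-640 nm) total intensity ratio; 0.5% DMSO vehicle.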
On the technique in general: Quantitative high-throughput screening tests each substance at several concentrations.

[1] abbreviates: measured here: GFP splicing reporter channel.
The mark [2] stands for this setting: measured here: RFP viability control channel.

Structures are written as SMILES. Several values for one entry are separate records, joined by “and”; a condition that tells them apart may be missing. Identical values can stand only once. The list shows a part of the results. Further columns of the screen follow, without active or inactive calls. Compounds called inactive in the main read-out are mostly missing here. Words in brackets tell the shape of the fitted curve; partial curves, single points and poor fits give uncertain potencies.

In general, AC50 refers to the concentration at which the activity in the assay is half-maximal.

Consider `Cc1cccc(N2CCN(C(=O)/C=C/c3cccs3)CC2)c1C`, for which the half-maximal activity concentration (AC50) by setting is: under setting [1], 15.8 µM [rising, single point]; under setting [2], 31.6 µM [rising, single point].

For `CC(O)[C@@H](O)[C@H]1CNc2nc(N)[nH]c(=O)c2N1` (stereo partly drawn), under setting [1], the concentration at half-maximal activity (AC50) was 0.00501 µM [falling, full curve, poor fit].

Consider `COc1ccc2nc(NC(=O)CSc3nc4cccnc4n3C)sc2c1`, for which the concentration at half-maximal activity (AC50) under setting [1] was 1 µM [rising, full curve, poor fit].

For `CC(=O)NC(c1cccs1)c1cc([N+](=O)[O-])c2cccnc2c1O` (stereo not drawn), the half-maximal activity concentration (AC50) under setting [2] was 11.2 µM [rising, partial curve].

With `O=C1CC(N2CCC(O)(c3ccc(Cl)cc3)CC2)C(=O)N1Cc1ccc(N2CCCC2=O)cc1` (stereo not drawn), the AC50 is 35.5 µM [rising, single point] under setting [1] and 31.6 µM [rising, single point] under setting [2].

Take `CC(C)C[C@H](NC(=O)NCc1ccc(Cl)cc1)C(=O)O`: the concentration at half-maximal activity (AC50) is, setting by setting: under setting [1], 0.447 µM [rising, partial curve]; under setting [2], 0.355 µM [rising, partial curve].

With `Cc1cccc(C(=O)NC2CCN(CC(=O)Nc3ccc4c(c3)OCO4)CC2)c1`, the concentration at half-maximal activity (AC50) under setting [1] was 0.141 µM [rising, full curve].

Turning to `COc1ccc(-c2cn3cccnc3n2)cc1NC(=O)c1cc(OC)c(OC)c(OC)c1`, the AC50 under setting [1] was 28.2 µM [falling, partial curve].

As to `Cc1cc(Nc2ccc(F)cc2F)nc(-n2nc(C)cc2C)n1`, the half-maximal activity concentration (AC50) under setting [1] was 0.0251 µM [rising, full curve, poor fit].

Take `Cc1ccc(S(=O)(=O)Nc2ccc(Cl)cc2C(=O)c2ccccc2)cc1`: the concentration at half-maximal activity (AC50) under setting [2] was 25.1 µM [rising, single point].

`O=C(CSc1nc(=O)n(CCN2CCOCC2)c2c1CCC2)Nc1ccc(Cl)c(Cl)c1`: the half-maximal activity concentration (AC50) under setting [1] was 12.6 µM [falling, partial curve].

On to `CC(=O)N1CCN(c2ccccc2NC(=O)COc2cc(C)ccc2C(C)C)CC1`, for which the AC50 under setting [2] is 31.6 µM [rising, single point].

Take `CCc1ccc(CN(C)CC(=O)Nc2sccc2C#N)cc1`: the half-maximal activity concentration (AC50) under setting [2] was 35.5 µM [rising, single point].

Consider `Cc1cc(C)cc(NS(=O)(=O)c2ccc(NC(=S)Nc3ccccc3)cc2)c1`, for which the AC50 under setting [2] was 14.1 µM [rising, single point].

Regarding `Cc1sc2ncnc(SCC(=O)c3ccc4c(c3)OCCO4)c2c1-c1ccccc1`, the AC50 is, setting by setting: under setting [1], 2 µM [rising, full curve, poor fit]; under setting [2], 3.16 µM [rising, full curve].

Turning to `Cc1ccc(NS(=O)(=O)c2ccc(NC(=O)CN(c3cc([N+](=O)[O-])ccc3C)S(C)(=O)=O)cc2)c(C)c1`, the half-maximal activity concentration (AC50) under setting [1] was 35.5 µM [falling, single point] and the half-maximal activity concentration (AC50) under setting [2] was 35.5 µM [falling, single point].

`COc1ccc(/C=N/NC(=O)CN(C2=NS(=O)(=O)c3ccccc32)c2ccccc2)cc1OC`: the AC50 under setting [1] was 11.2 µM [rising, partial curve, poor fit] and the half-maximal activity concentration (AC50) under setting [2] is 14.1 µM [rising, partial curve, poor fit].

As for `CCCCOc1ccc(CSc2ncn[nH]2)cc1`, the concentration at half-maximal activity (AC50) is 15.8 µM [rising, partial curve] under setting [1] and 35.5 µM [rising, single point] under setting [2].

Take `Cc1c(C(=O)NCC2COc3ccccc3O2)oc2ccc(S(=O)(=O)N3CCOCC3)cc12` (stereo not drawn): the concentration at half-maximal activity (AC50) under setting [2] was 10 µM [rising, partial curve, poor fit].

On to `CCOC(=O)CC(NC(=O)c1cc2ccccc2oc1=O)c1cccc([N+](=O)[O-])c1` (stereo not drawn), for which the concentration at half-maximal activity (AC50) under setting [2] is 0.562 µM [rising, full curve, poor fit].

Regarding `Cc1ccc(Cn2nc(C)c(NC(=O)c3noc4c3CCCCC4)c2C)cc1`, the AC50 under setting [2] was 10 µM [rising, partial curve].

As to `Cc1cc(NS(=O)(=O)c2ccc(Nc3nc(-c4ccc(C)c(C)c4)cs3)cc2)no1`, under setting [2], the AC50 was 35.5 µM [rising, single point].

Turning to `CC(C)(C)N(Cc1ccccc1)C(=O)c1ccc(Br)o1`, under setting [2], the concentration at half-maximal activity (AC50) was 3.55 µM [falling, partial curve, poor fit].

`Clc1cc(Br)ccc1OCCCn1ccnc1`: the AC50 under setting [2] is 25.1 µM [rising, single point].

For `COc1ccc(Cc2nnc(N)s2)cc1`, the concentration at half-maximal activity (AC50) under setting [1] was 35.5 µM [falling, single point] and the concentration at half-maximal activity (AC50) under setting [2] is 35.5 µM [falling, single point].

Take `COc1ccc(NC(=O)c2cc3cc(C)ccc3[nH]2)cc1`: under setting [1], the concentration at half-maximal activity (AC50) was 1.41 µM [rising, partial curve].

With `CC1=C(C#N)C(=O)NC(=O)/C1=C/c1ccc(-c2ccc(S(N)(=O)=O)cc2)o1`, the AC50 under setting [1] was 0.794 µM [falling, single point].

In the case of `CCCCCc1nnc(NC(=O)c2ccc(=O)n(C)n2)s1`, the AC50 under setting [1] is 6.31 µM [rising, partial curve] and the half-maximal activity concentration (AC50) under setting [2] is 0.00316 µM [rising, full curve, poor fit].

`O=C1c2ccccc2C(=O)N1c1ccc(S(=O)(=O)N2CCN(c3ccccc3)CC2)cc1`: the half-maximal activity concentration (AC50) under setting [2] was 0.0178 µM [falling, full curve, poor fit].

With `Cc1[nH]nc(Sc2ccccn2)c1[N+](=O)[O-]`, the half-maximal activity concentration (AC50) is, setting by setting: under setting [1], 0.398 µM [falling, full curve, poor fit]; under setting [2], 0.891 µM [falling, full curve].

Take `CSc1ccccc1-c1nnc(NC(=O)c2ccc3c(c2)OCCO3)o1`: the AC50 under setting [2] is 5.01 µM [rising, partial curve].

In the case of `Cc1c(C(=O)N2CCCCCC2)c(S(=O)(=O)NCc2ccccc2)c(C)n1C`, under setting [1], the half-maximal activity concentration (AC50) is 0.0708 µM [falling, full curve, poor fit].

Turning to `CCOc1ccccc1NC(=O)Cn1c(=O)sc2ccccc21`, under setting [1], the concentration at half-maximal activity (AC50) was 0.501 µM [rising, full curve].

With `CCCCN(CCCC)C1=Nc2ccccc2N/C1=C(/C#N)C(=O)OCC`, the AC50 under setting [1] was 7.08 µM [rising, partial curve].

Turning to `CCCNC(C)C(=O)Nc1ccccc1C` (stereo not drawn), under setting [2], the AC50 is 25.1 µM [falling, partial curve].

For `CC[n+]1c(/C=C2\Sc3ccccc3N2C)ccc2cccc(C)c21`, the concentration at half-maximal activity (AC50) under setting [1] is 5.62 µM [rising, single point].

Regarding `CC(=O)N1CCc2c(sc3c2c(=O)n(-c2ccccc2)c(=O)n3CC(=O)Nc2cc(C)cc(C)c2)C1`, the concentration at half-maximal activity (AC50) under setting [1] is 6.31 µM [falling, partial curve].

In the case of `N#CC(c1ccccc1)c1ccc(C(=O)c2ccc(F)cc2)cc1` (stereo not drawn), under setting [2], the AC50 was 20 µM [rising, single point].

`COc1ccc(CN(CCN(C)C)c2ccccn2)cc1`: the concentration at half-maximal activity (AC50) under setting [2] is 1.12 nM [rising, full curve, poor fit] and 79.4 nM [rising, full curve, poor fit].

Consider `Cc1ccc(-n2nc(C(=O)N3CCN(c4ccccc4F)CC3)c(=O)n(C)c2=O)cc1`, for which the half-maximal activity concentration (AC50) under setting [1] was 0.0126 µM [falling, full curve, poor fit].

In the case of `Nc1ncn([C@@H]2O[C@H](CO)[C@@H](O)[C@H]2O)c(=O)n1`, the concentration at half-maximal activity (AC50) is 2.51 µM [falling, full curve] under setting [1]; 1.58 µM [falling, full curve] and 5.62 µM [falling, full curve] under setting [2].

For `CC(=O)N1C(=S)NC(=O)/C1=C1/C(=O)N(CC(=O)Nc2cccc(C)c2)c2ccccc21`, the AC50 under setting [2] was 0.282 µM [rising, full curve, poor fit].

As for `Cc1cc(C(F)(F)F)n(-c2nc(C(=O)Nc3ccccc3Oc3ccccc3)cs2)n1`, the concentration at half-maximal activity (AC50) under setting [2] is 0.282 µM [falling, single point].

Regarding `Clc1ccccc1CSc1nnc(-c2ccccn2)n1Cc1ccco1`, the AC50 under setting [1] is 11.2 µM [rising, partial curve] and the AC50 under setting [2] is 10 µM [rising, partial curve].

In the case of `Nc1ccc(N2CCN(C(=O)c3cccs3)CC2)cc1`, the AC50 under setting [1] is 10 µM [falling, partial curve].

In the case of `CCOc1ccc(CNC(=O)CCc2c(C)nn(-c3ccc(N4CCCCC4)nn3)c2C)cc1`, the half-maximal activity concentration (AC50) under setting [2] is 2.24 µM [falling, partial curve].

As for `Cc1nc(N)sc1-c1csc(NCc2ccccc2)n1`, under setting [2], the concentration at half-maximal activity (AC50) is 0.178 µM [falling, full curve, poor fit].

Regarding `Cn1c2c(c(O)c(-c3ccccc3)c1=O)C(=O)CC(C)(C)C2`, the concentration at half-maximal activity (AC50) under setting [2] was 3.16 µM [rising, full curve, poor fit].

Turning to `N#CCCN1CCN(S(=O)(=O)c2ccc(S(=O)(=O)NC3CCCCC3)cc2)CC1`, the half-maximal activity concentration (AC50) under setting [1] was 0.282 µM [falling, full curve, poor fit].

With `Cc1cc(/C=C2\SC(=Nc3ccc(F)cc3)NC2=O)c(C)n1-c1ccc(S(N)(=O)=O)cc1`, the AC50 under setting [2] is 3.55 µM [rising, single point].

As to `O=S(=O)(NCCc1csc(-c2ccc(C(F)(F)F)cc2)n1)c1ccc2c(c1)OCCO2`, the concentration at half-maximal activity (AC50) was 12.6 µM [rising, partial curve] under setting [1] and 12.6 µM [rising, partial curve] under setting [2].

In the case of `[O-]/C(=C(\C(=S)Nc1ccc(Cl)cc1)[n+]1ccccc1)c1ccc(OC(F)F)cc1`, the concentration at half-maximal activity (AC50) is 22.4 µM [falling, single point] under setting [1] and 15.8 µM [falling, single point] under setting [2].

Consider `Cc1cc(Nc2cccc(Cl)n2)n(-c2ccccc2)n1`, for which, under setting [2], the half-maximal activity concentration (AC50) was 35.5 µM [rising, single point].

As for `Cc1ccc(-c2nnc(SCC(=O)NC3CCCc4ccccc43)n2N)cc1` (stereo not drawn), the AC50 is 11.2 µM [rising, partial curve] under setting [1] and 25.1 µM [rising, single point] under setting [2].

For `COc1ccc(CCNC(=O)/C(C#N)=C/c2cccc(OCc3ccccc3)c2)cc1OC`, the concentration at half-maximal activity (AC50) by setting is: under setting [1], 17.8 µM [rising, single point]; under setting [2], 22.4 µM [rising, single point].

As to `CCn1nnnc1SCC(=O)N(C1CCCCC1)C1CCCCC1`, the AC50 by setting is: under setting [1], 7.08 µM [rising, partial curve]; under setting [2], 5.62 µM [rising, full curve].
